Article PMC3264624
These are yes or no findings as the source states them, for the method shown.

Chains of the proteins cited; added tags and fusions are not shown. Lines headed by an entry give the natural chain unless they say otherwise; changes in a name come on top.
UniProt P40350: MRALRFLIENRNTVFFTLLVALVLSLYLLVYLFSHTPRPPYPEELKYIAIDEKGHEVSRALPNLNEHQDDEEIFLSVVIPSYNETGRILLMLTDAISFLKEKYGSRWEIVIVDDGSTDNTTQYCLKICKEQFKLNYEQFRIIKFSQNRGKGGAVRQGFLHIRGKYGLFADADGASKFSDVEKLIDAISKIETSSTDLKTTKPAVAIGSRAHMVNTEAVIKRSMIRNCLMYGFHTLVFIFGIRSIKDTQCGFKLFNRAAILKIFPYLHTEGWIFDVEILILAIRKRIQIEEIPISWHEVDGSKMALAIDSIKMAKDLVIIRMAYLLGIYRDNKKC
UniProt Q70KR8: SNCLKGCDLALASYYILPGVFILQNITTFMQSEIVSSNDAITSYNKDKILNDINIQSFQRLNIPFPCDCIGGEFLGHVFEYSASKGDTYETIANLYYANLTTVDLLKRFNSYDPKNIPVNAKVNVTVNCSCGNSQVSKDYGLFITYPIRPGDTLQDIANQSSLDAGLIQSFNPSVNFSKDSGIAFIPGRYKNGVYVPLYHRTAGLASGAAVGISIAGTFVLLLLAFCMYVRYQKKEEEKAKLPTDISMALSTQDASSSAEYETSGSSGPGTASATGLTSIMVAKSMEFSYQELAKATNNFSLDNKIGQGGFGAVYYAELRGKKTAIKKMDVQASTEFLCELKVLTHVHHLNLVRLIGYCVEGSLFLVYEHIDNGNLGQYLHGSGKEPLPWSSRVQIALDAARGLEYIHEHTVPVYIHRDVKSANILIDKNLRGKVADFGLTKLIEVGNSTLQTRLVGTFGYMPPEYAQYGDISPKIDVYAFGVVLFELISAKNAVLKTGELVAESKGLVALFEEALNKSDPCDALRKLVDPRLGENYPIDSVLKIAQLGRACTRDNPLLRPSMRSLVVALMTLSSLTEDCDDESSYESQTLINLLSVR

Target: yeast resident ER protein Alg5, split-ubiquitin control fusion (yeast) (UniProt P40350)
Test: two-hybrid; yeast split-ubiquitin system (SUS), strain NMY32; Cub bait and NubG prey; growth on -LWH medium with 15 mM 3-AT, dilution series

binding: no binding
Substance: NFR1, yeast split-ubiquitin fusion (from UniProt Q70KR8) (receptor)
